According to PubChem BioAssay AID1487 (National Center for Advancing Translational Sciences (NCATS), 2009):
The other results are listed elsewhere or left out. Further columns of the screen follow, without active or inactive calls. The list favours compounds with an active or inconclusive main result. Potencies come from curve fits of mixed quality, noted in brackets.

Experiment: qHTS Assay for Modulators of Lamin A Splicing
Conditions: HeLa LMNA splicing GFP/RFP minigene ratio, 48 h
How it was run: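 Read-out is the ratio of GFP to DsRed2 object intensity, acquired by 488 nm laser-scanning cytometry on HeLa lamin A-EGFP minigene reporter cells. Compound incubation 48 hrs at 37 °C in Opti-MEM with 2% FBS; DMSO 0.5% final.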

[1] = measured here: GFP splicing reporter channel
[2] = measured here: RFP viability control channel

| Compound | AC50 [1] | AC50 [2] |
| --- | --- | --- |
| COc1ccc2cc(C3(C)NC(=O)NC3=O)ccc2c1 (stereo unspecified) | 15.8 µM [falling, single point] | 7.08 µM [falling, partial curve, poor fit] |
| COc1ccc(-c2nc(C)c(CCNC(=O)C(=O)Nc3ccccc3C#N)s2)cc1OC |  | 20 µM [falling, single point] |
| Cc1ccc(-c2cc(-c3ccc4c(c3)OCO4)c(C#N)c(N)n2)o1 | 14.1 µM [rising, single point] |  |
| COc1ccc(C(=O)CSc2n[nH]c(=O)[nH]c2=O)cc1 | 28.2 µM [falling, partial curve] | 10 µM [falling, partial curve] |
| CC1=C(c2ccc(F)cc2)S(=O)(=O)NC1=NCc1ccccc1F | 0.562 µM [rising, full curve, poor fit] |  |
| NNc1nc2c(Cl)cccc2s1 |  | 12.6 µM [rising, partial curve] |
| Cc1cc(C)cc(Nc2cc(C(=O)NCCCN(Cc3ccccc3)C(C)C)c3ccccc3n2)c1 | 28.2 µM [falling, single point] | 35.5 µM [falling, single point] |
| O=S(=O)(NCCc1ccncc1)c1ccc(S(=O)(=O)N2CCCCCC2)cc1 | 14.1 µM [rising, single point] | 14.1 µM [rising, single point] |
| CCn1c(C)nc2cc(C(=O)NNC(=S)NC(=O)c3ccccc3)ccc21 | 8.91 µM [falling, partial curve, poor fit] |  |
| Cc1ccc(Sc2ccc([N+](=O)[O-])cc2[N+](=O)[O-])nc1 |  | 31.6 µM [rising, single point] |
| COc1ccc(CCNC(=S)Nc2cccc(C)c2C)cc1 |  | 35.5 µM [rising, single point] |
| CCC(C)(C)n1nnnc1C(c1cc2ccc(OC)cc2[nH]c1=O)N1CCc2ccccc21 (stereo unspecified) | 10 µM [rising, partial curve] |  |
| O=c1[nH]c2cc(Cl)c(Cl)cc2[nH]c1=O | 5.62 µM [falling, partial curve, poor fit] | 11.2 µM [falling, partial curve] |
| CC1=CC(C)(C)NC(=S)N1c1ccccc1C | 5.62 µM [rising, single point] |  |
| Cc1nn(-c2ccccc2)c2ncc(C(=O)c3cc(Cl)ccc3O)cc12 | 2.82 µM [rising, single point] | 35.5 µM [rising, single point] |
| CCOC(=O)c1c(NC(=O)C2=C(C)NC(=S)NC2c2ccc(CC)cc2)sc(C)c1C (stereo unspecified) | 10 µM [rising, partial curve] | 12.6 µM [rising, single point] |
| COc1cccc(/C=N/NC(=O)c2nc(-c3ccccc3)cc(-c3ccccc3)n2)c1O |  | 8.91 µM [rising, partial curve] |
| Cc1ccc(C)c2sc(NC(=O)c3ccc(S(=O)(=O)N4CCCC4)cc3)nc12 |  | 5.62 µM [falling, full curve, poor fit] |
| Cc1cc(-c2c(C)[nH]n(-c3ccc(Cl)cc3)c2=O)n[nH]1 | 15.8 µM [falling, partial curve] | 28.2 µM [falling, single point] |
| CCOc1cnc(-c2c(-c3c(Cl)cccc3Cl)noc2C)o1 |  | 31.6 µM [rising, single point] |
| CCOc1ccc(CNC(=O)c2ccc3c(c2)nc2n3CCOC2)cc1 | 0.794 µM [rising, full curve, poor fit] |  |
| CCOc1cc(/C=N/NC(=O)c2ccc(CN3CCOCC3)cc2)ccc1OCc1ccccc1 |  | 7.94 µM [rising, partial curve, poor fit] |
| CCCOc1ccccc1N/C(=N/c1nc(C)cc(C)n1)NC(=O)COc1ccc(OC)cc1 | 31.6 µM [rising, single point] | 35.5 µM [rising, single point] |
| Cc1ccc(C(c2nnnn2C(C)(C)C)N(Cc2ccco2)Cc2cccs2)cc1 (stereo unspecified) |  | 22.4 µM [rising, single point] |
| O=C(COc1cc(Cl)c(Cl)cc1Cl)Nc1ccncc1 |  | 35.5 µM [rising, single point] |
| CCOC(=O)c1c(-c2ccccc2Cl)csc1NC(=O)CSc1nc(C)cc(=O)[nH]1 | 11.2 µM [rising, partial curve, poor fit] | 25.1 µM [rising, partial curve] |
| C=CCOc1c(Cl)cc(CNc2ccc(N(C)C)cc2)cc1OC | 35.5 µM [falling, single point] | 35.5 µM [falling, single point] |
| [O-][n+]1c2c(c3c4non(O)c4ccc31)CCCC2 |  | 22.4 µM [rising, single point] |

| Compound | AC50 [1] | AC50 [2] |
| --- | --- | --- |
| CCC1C(=NO)C(CC)C(c2ccccc2)NC1c1ccccc1 (stereo unspecified) | 35.5 µM [falling, single point] | 3.16 µM [falling, single point] |
| COc1ccc(NC(=O)Cn2c(=O)n(CC3CCCO3)c(=O)c3ccccc32)c(OC)c1 (stereo unspecified) | 14.1 µM [falling, partial curve] |  |
| O=C(CCc1ccc(S(=O)(=O)N2CCOCC2)cc1)Nc1nc(COc2ccccc2)cs1 | 10 µM [rising, partial curve] | 8.91 µM [rising, partial curve] |
| CCOc1cc(-c2cc(-c3ccccc3)nc(N)c2C#N)ccc1O |  | 15.8 µM [rising, single point] |
| COc1ccc(NS(=O)(=O)/C=C/c2ccccc2)cc1 |  | 35.5 µM [rising, single point] |
| COc1ccc(/C=N/Nc2cn[nH]c(=O)c2Cl)cc1 |  | 22.4 µM [falling, partial curve, poor fit] |
| Cc1c(C(=O)N2CCCCC2)nn(-c2ccc(Cl)cc2)c(=O)c1C#N |  | 1.26 µM [falling, partial curve, poor fit] |
| O=C(COc1ccc2ccccc2c1)Nc1cccc(C(=O)Nc2ccccc2C(=O)O)c1 |  | 22.4 µM [rising, partial curve, poor fit] |
| CN(Cc1ccccc1)C(=O)C1CCCN(Cc2ccc(Cl)cc2)C1 (stereo unspecified) | 5.01 µM [rising, single point] |  |
| COc1ccccc1N1CCN(C(=O)c2ccc(CSc3ccccc3)cc2)CC1 | 0.1 µM [rising, full curve, poor fit] | 20 µM [rising, partial curve, poor fit] |
| Cc1ccc(C(C(=O)NC2CCCC2)N(Cc2cccnc2)C(=O)c2snc(C(N)=O)c2N)o1 (stereo unspecified) |  | 3.16 µM [rising, single point] |
| CN1CCN(C(=O)CSc2nc(-c3cccs3)cc(-c3cccs3)c2C#N)CC1 | 35.5 µM [rising, single point] | 35.5 µM [rising, single point] |
| O=C(COC(=O)Cc1ccc(Cl)cc1)Nc1c(F)cccc1F | 35.5 µM [falling, partial curve] |  |
| CCCCCCCCC[n+]1cccc2c3ccccc3ccc21 | 11.2 µM [falling, single point] | 20 µM [falling, partial curve, poor fit] |
| Cc1cc(NC(=O)NCc2ccc3c(c2)CCN3C(=O)c2ccccc2)ccc1Br | 6.31 µM [falling, single point] |  |
| Cn1c(=O)n(C)c2cc([N+](=O)[O-])c(N3CCN(S(=O)(=O)c4ccccc4)CC3)cc21 | 22.4 µM [rising, single point] | 22.4 µM [rising, partial curve, poor fit] |
| O=C(COC(=O)c1cccnc1)c1ccc(Cl)cc1 |  | 5.62 µM [rising, single point] |
| COc1ccc(NC(=O)Cn2c(C)cc(=O)c3ccccc32)cc1 |  | 4.47 µM [rising, full curve] |
| Cc1cc(C)nc(N/N=C/c2ccccc2OCc2ccc(Br)cc2)n1 | 0.00447 µM [rising, full curve, poor fit] | 35.5 µM [rising, single point] |
| CC(C)[C@@H](N)C(=O)O | 7.94 µM [rising, partial curve, poor fit] | 20 µM [rising, partial curve, poor fit] |
| O=C(CSc1nnc(-c2ccccc2)o1)NCC1CCCCC1 | 0.0562 µM [rising, full curve, poor fit] |  |
| CCC1Sc2ccccc2N(CC(=O)NCc2ccccc2OC)C1=O (stereo unspecified) | 31.6 µM [rising, single point] | 31.6 µM [rising, single point] |
| Cc1cc2nc(C)n(CCCNC(=O)Nc3cccc4ccccc34)c2cc1C |  | 25.1 µM [rising, single point] |
| CCC(C)n1c(=O)c(C(=O)Nc2ccccc2S(N)(=O)=O)c(O)c2ccccc21 (stereo unspecified) |  | 12.6 µM [rising, single point] |
| Cc1ccc(OCC(=O)N/N=C/C=C/c2ccco2)cc1C |  | 0.0355 µM [rising, full curve, poor fit] |
| COc1ccc(O[C@H]2C=C[C@@H](c3ccccc3)O[C@@H]2CO/N=C(\C)CCC(=O)OC[C@H]2O[C@H](c3ccccc3)C=C[C@@H]2Oc2ccc(OC)cc2)cc1 |  | 3.98 µM [rising, single point] |
| COc1ccc(CNc2ccnc(-c3cccc(C#N)c3)n2)c(OC)c1 | 7.08 µM [falling, partial curve] | 15.8 µM [falling, partial curve] |
